Measured values: doi:10.1101/2025.08.29.672993

Amino acid sequences for entries named in this document (tags omitted). Residues count along the entry.
UniProt P08581, 25-1390: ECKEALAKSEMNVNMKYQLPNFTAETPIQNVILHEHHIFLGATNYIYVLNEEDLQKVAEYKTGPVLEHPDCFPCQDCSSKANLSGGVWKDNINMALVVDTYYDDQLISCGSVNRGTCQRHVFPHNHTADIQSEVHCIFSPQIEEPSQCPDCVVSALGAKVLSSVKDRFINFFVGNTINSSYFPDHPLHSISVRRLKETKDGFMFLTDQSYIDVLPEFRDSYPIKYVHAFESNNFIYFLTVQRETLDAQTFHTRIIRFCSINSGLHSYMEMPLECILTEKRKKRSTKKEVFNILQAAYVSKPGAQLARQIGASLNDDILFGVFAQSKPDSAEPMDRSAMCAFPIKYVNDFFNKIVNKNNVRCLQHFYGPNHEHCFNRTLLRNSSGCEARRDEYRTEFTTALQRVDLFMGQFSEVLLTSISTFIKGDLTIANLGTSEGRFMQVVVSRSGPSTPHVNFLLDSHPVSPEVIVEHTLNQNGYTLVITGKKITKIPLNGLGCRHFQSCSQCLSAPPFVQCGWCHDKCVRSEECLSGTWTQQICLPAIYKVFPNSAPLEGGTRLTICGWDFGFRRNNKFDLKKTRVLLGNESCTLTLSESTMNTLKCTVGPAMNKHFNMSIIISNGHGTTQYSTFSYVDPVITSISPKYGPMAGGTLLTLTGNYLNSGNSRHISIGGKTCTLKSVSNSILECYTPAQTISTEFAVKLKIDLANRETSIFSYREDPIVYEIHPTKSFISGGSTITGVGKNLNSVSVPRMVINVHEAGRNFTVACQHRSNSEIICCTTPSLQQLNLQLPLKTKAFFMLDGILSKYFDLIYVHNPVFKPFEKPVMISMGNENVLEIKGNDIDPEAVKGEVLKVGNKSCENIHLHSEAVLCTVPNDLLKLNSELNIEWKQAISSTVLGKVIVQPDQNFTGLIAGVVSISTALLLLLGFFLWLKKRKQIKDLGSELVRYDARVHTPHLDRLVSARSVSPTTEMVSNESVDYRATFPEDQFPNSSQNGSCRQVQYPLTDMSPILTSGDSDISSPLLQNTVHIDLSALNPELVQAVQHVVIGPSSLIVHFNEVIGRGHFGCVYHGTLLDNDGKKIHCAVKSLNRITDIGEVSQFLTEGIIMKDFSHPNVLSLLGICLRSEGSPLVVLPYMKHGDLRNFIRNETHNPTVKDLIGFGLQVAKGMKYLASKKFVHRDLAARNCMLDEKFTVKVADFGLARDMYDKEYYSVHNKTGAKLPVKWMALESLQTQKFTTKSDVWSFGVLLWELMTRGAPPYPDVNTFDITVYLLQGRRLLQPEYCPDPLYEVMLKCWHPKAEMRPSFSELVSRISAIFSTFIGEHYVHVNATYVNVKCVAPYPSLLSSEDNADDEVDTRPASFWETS
UniProt P19338, 2-710: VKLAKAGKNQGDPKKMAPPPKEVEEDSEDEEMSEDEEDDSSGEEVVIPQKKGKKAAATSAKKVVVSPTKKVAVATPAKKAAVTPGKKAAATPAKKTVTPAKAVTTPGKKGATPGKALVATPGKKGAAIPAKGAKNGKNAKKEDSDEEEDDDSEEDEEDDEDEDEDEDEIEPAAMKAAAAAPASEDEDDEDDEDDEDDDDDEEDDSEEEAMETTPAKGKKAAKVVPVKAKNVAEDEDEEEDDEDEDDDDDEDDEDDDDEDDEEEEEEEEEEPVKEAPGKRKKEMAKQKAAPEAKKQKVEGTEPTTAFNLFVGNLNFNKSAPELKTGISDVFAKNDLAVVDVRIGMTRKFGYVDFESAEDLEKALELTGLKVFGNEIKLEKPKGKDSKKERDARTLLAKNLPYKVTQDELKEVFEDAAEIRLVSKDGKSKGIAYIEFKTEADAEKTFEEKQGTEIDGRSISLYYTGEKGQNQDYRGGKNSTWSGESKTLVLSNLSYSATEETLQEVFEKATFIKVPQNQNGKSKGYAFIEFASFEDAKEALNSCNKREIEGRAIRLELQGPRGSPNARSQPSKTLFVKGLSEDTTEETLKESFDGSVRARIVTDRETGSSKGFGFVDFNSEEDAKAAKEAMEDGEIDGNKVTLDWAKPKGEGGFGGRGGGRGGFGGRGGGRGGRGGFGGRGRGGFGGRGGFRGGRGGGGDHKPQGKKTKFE
UniProt P35968, 20-1356: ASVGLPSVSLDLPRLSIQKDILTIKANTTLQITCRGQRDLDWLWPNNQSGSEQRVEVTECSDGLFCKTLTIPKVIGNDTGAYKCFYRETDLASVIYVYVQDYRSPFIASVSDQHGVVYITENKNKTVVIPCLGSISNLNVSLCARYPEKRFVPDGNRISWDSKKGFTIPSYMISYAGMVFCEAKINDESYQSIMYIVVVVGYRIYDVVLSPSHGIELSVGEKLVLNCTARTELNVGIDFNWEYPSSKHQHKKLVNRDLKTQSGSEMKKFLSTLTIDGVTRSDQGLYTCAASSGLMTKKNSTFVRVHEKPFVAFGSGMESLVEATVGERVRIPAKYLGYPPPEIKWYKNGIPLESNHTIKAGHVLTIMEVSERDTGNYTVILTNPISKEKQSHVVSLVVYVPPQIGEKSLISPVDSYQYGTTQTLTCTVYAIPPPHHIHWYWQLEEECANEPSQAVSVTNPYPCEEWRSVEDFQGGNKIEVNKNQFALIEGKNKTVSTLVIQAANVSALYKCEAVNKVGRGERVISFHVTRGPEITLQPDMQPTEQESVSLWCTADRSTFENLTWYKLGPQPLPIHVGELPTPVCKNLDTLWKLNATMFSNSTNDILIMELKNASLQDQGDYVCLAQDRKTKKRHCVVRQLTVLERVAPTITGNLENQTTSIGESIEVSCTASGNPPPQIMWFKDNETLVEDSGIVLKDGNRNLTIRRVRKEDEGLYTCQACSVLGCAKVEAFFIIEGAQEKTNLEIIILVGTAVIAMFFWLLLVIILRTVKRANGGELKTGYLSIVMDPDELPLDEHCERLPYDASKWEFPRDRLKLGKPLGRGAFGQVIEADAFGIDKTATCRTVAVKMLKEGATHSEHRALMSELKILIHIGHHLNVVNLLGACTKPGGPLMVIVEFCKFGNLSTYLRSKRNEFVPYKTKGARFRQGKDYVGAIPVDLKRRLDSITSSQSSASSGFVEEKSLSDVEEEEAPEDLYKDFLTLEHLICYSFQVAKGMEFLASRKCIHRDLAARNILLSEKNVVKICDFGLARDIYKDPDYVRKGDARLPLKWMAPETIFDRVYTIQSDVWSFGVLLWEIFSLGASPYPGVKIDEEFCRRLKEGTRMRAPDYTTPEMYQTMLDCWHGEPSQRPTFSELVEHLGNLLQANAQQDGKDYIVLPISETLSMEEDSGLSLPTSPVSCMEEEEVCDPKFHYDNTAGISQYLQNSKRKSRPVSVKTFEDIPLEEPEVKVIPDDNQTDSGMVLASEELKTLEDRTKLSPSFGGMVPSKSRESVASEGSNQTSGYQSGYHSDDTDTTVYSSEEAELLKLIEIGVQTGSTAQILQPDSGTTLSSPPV

Columns and labels:
Assay in all cases: biotin-streptavidin pull-down
[1] = biological target: c-Met, endogenous, HeLa (UniProt P08581); conditions: HeLa; protein in an extract; single-stranded DNA
[2] = biological target: Nucleolin (NCL), endogenous, HeLa (UniProt P19338); conditions: HeLa; protein in an extract; single-stranded DNA
[3] = biological target: c-Met, endogenous, U-2 OS (UniProt P08581); conditions: U-2 OS; protein in an extract; single-stranded DNA
[4] = biological target: Nucleolin (NCL), endogenous, RA-FLS (UniProt P19338); conditions: RA-FLS, 1 uM, 8 h; protein in an extract
[5] = biological target: VEGFR-2, endogenous, RA-FLS (UniProt P35968); conditions: RA-FLS, 1 uM, 8 h; protein in an extract
[6] = biological target: Nucleolin (NCL), endogenous, U-2 OS (UniProt P19338); conditions: U-2 OS, 8 h; protein in an extract; single-stranded DNA

Sequence | binding result [1] | binding result [2] | binding result [3] | binding result [4] | binding result [5] | binding result [6]
CCGGCTGCTGCGGCATCGGGCTAGATATCGAT [SAPT8] | no binding | binds | no binding | binds | no binding | binds
GGAATTCCCGGTGCGCCGATCGCCGGATATAACTT [NC] | – | – | – | – | – | no binding

Where cells or extracts were used, other partners may take part. For some of these results: No signal at the amounts used counts as a negative. For some of these results: Construct, isoform or probe ends are uncertain for at least one entry.
